Source: PubChem BioAssay AID1259254 (NCATS, 2017)
The deposit covers about 59,000 reagents; shown is an unselected part. Of all reagents, about 1,550 (2.6%) got an active call. 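G2 share is only a proxy for re-replication; each gene was hit by three separate siRNAs, and active genes were retested.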 The numbers tell different reagents against one gene apart. Not all columns of the deposit are shown. Reagent sequences are not shown. Not stated in the record: the amount of reagent.

Assay: 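Finding genes that stop cells copying their DNA twice in one cycle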 (primary screen)
Cells: human HCT116 colorectal cancer cells
Knock-down reagent: single siRNA against human genes
Timing: 3 days
Measured: 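Imaged Hoechst DNA stain sorts each cell into a cycle phase by DNA amount; per plate, G2 fraction set to 0% for non-targeting and 100% for GMNN siRNA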
Scale: G2 robust z-score and G2 cells, % of GMNN control: higher = more G2 cells, more excess DNA replication
Active means: 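An siRNA counts as active if its G2 robust z-score lies at least 5 MADs above the screen median; here such calls match roughly 38% of GMNN control or more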

Target gene	reagent no.	G2 robust z-score	G2 cells, % of GMNN control	Call
FCGBP	1	-0.632	-1.48	inactive
FCGBP	2	-0.291	0.921	inactive
FCGBP	3	-0.46	-0.267	inactive
ZSCAN29	1	0.135	3.92	inactive
ZSCAN29	2	-0.711	-2.03	inactive
ZSCAN29	3	-0.0157	2.86	inactive
KMT5A	1	1.46	13.2	inactive
KMT5A	2	7.94	58.9	active
KMT5A	3	0.941	9.59	inactive
UBE2N	1	3.28	26.1	inactive
UBE2N	2	0.712	7.98	inactive
UBE2N	3	-0.469	-0.331	inactive
ZNF98	1	2.81	22.7	inactive
ZNF98	2	2.45	20.2	inactive
ZNF98	3	-0.503	-0.574	inactive
KCNE4	1	0.259	4.79	inactive
KCNE4	2	0.24	4.66	inactive
KCNE4	3	-1.35	-6.52	inactive
SLC8A3	1	0.761	8.32	inactive
SLC8A3	2	1.42	12.9	inactive
SLC8A3	3	-0.507	-0.6	inactive
GFPT1	1	-0.762	-2.4	inactive
GFPT1	2	-0.732	-2.18	inactive
GFPT1	3	0.0442	3.28	inactive
KLB	1	-0.344	0.55	inactive
KLB	2	-0.162	1.83	inactive
KLB	3	0.231	4.59	inactive
BRAP	1	3.11	24.8	inactive
BRAP	2	-0.107	2.22	inactive
BRAP	3	-0.251	1.2	inactive
MIB2	1	-0.551	-0.906	inactive
MIB2	2	-0.726	-2.14	inactive
MIB2	3	-0.326	0.676	inactive

Reagents listed so far called active, once more:
Target gene	reagent no.	G2 robust z-score	G2 cells, % of GMNN control	Call
KMT5A	2	7.94	58.9	active

Additional entries follow.
Target gene	reagent no.	G2 robust z-score	G2 cells, % of GMNN control	Call
EME1	1	0.663	7.64	inactive
EME1	2	1.89	16.2	inactive
EME1	3	-0.227	1.37	inactive
FAAP20	1	0.0316	3.19	inactive
FAAP20	2	-0.638	-1.52	inactive
FAAP20	3	1.06	10.4	inactive
SMIM24	1	-0.262	1.13	inactive
SMIM24	2	0.747	8.22	inactive
SMIM24	3	-0.75	-2.31	inactive
FANCC	1	2.41	19.9	inactive
FANCC	2	-0.339	0.58	inactive
FANCC	3	-1.04	-4.35	inactive
ZBTB48	1	-0.405	0.121	inactive
ZBTB48	2	-0.734	-2.2	inactive
ZBTB48	3	-0.771	-2.46	inactive
CCNT2	1	-1.16	-5.18	inactive
CCNT2	2	3.68	28.9	inactive
CCNT2	3	2.15	18.1	inactive
C1orf52	1	1.41	12.9	inactive
C1orf52	2	2.89	23.3	inactive
C1orf52	3	-0.434	-0.0868	inactive
NR0B2	1	3.02	24.2	inactive
NR0B2	2	-0.441	-0.134	inactive
NR0B2	3	3.01	24.1	inactive
ZNF559	1	-0.439	-0.118	inactive
ZNF559	2	-0.621	-1.4	inactive
ZNF559	3	-0.656	-1.65	inactive
PRKAB2	1	-0.261	1.13	inactive
PRKAB2	2	-0.14	1.98	inactive
PRKAB2	3	-0.465	-0.306	inactive
HRNR	1	1.07	10.5	inactive
HRNR	2	-0.937	-3.63	inactive
HRNR	3	1.78	15.5	inactive
TGM6	1	-0.567	-1.02	inactive
TGM6	2	-0.442	-0.144	inactive
TGM6	3	-0.505	-0.584	inactive
TANC2	1	-0.605	-1.29	inactive
TANC2	2	-0.536	-0.803	inactive
TANC2	3	-0.203	1.54	inactive
EMC1	1	1.36	12.5	inactive
EMC1	2	1.78	15.5	inactive
EMC1	3	-0.224	1.39	inactive
OR52L1	1	0.117	3.79	inactive
OR52L1	2	1.74	15.2	inactive
OR52L1	3	1.9	16.3	inactive
GNPDA2	1	1.33	12.3	inactive
GNPDA2	2	-0.182	1.69	inactive
GNPDA2	3	1.63	14.5	inactive
CLDN25	1	0.164	4.12	inactive
CLDN25	2	2.64	21.5	inactive
CLDN25	3	0.593	7.14	inactive
CNNM1	1	0.604	7.22	inactive
CNNM1	2	1.39	12.7	inactive
CNNM1	3	1.23	11.6	inactive
